These results are taken from the supplement of paper PMC8256030.

“And” between values parts separate entries of the source, which are not always exact repeats. Identical values can stand only once. This is one part of the list. Single values are uncertain here, since repeats match poorly.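 HEK293T cells were given each compound shortly before transfection with a reporter in which red mCherry is followed by the SARS-CoV-2 frameshift element and then GFP in the −1 frame, so GFP appears only after frameshifting.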

Experiment [1] has as its system SARS-CoV-2 -1 PRF reporter mCherry-FSE-GFP(-1). The experiment in a line: mCherry (red) intensity as percent of control; higher = higher upstream reporter expression. The conditions noted are these: 10 µM; 24 h; HEK293T.
Experiment [2] shares this test system. The experiment in a line: percent effect, decrease of GFP/mCherry ratio (-1 PRF reporter) relative to controls; higher = stronger frameshift inhibition. The conditions noted are these: 10 µM; 24 h; HEK293T.

In the case of `CC[C@H]1OC(=O)[C@H](C)C(=O)[C@H](C)[C@@H](O[C@@H]2O[C@H](C)C[C@H](N(C)C)[C@H]2O)[C@](C)(OC)C[C@@H](C)C(=O)[C@H](C)[C@H]2N(CCCCn3cnc(-c4cccnc4)c3)C(=O)O[C@]12C` [telithromycin], the mCherry in experiment [1] came out at 106%. Besides, the percent effect in experiment [2] is -1.01%.
The like results for `CC(=O)N[C@@H](CC(=O)N[C@@H](CCC(=O)O)C(=O)O)C(=O)O` [Spaglumic Acid] were, in that order, 96.9% and -2.33%.
The corresponding values for `CC(=O)N(C)C1(c2ccccc2)CCN(CCC[C@]2(c3ccc(Cl)c(Cl)c3)CCCN(C(=O)c3ccccc3)C2)CC1` [osanetant] are 32.1% and -9.59%.
Turning to `OCCN1C[C@H](O)[C@@H](O)[C@H](O)[C@H]1CO` [miglitol], the mCherry in experiment [1] turned out to be 93.5%. In experiment [2], the percent effect is -2.37%.
The corresponding values for `Cc1nc2c([nH]1)c(=O)n(C)c(=O)n2Cc1ccco1` [furafylline] are 95.5% and 5.21%.
Regarding `CC(C)NCC(O)COc1cccc2[nH]ccc12` (stereo not given) [pindolol], in experiment [1], the mCherry was 105% and 110%. The percent effect in experiment [2] was -2.15% and -9.18%.
Molecule `OC[C@H]1O[C@H](O[C@]2(CCl)O[C@H](CCl)[C@@H](O)[C@@H]2O)[C@H](O)[C@@H](O)[C@H]1Cl` came in with a mCherry in experiment [1] of 114%. Further, the percent effect in experiment [2] was 1.43%.
The like results for `CC1(C)[C@@H](O)CC[C@]2(C)[C@H]3C(=O)C=C4[C@@H]5C[C@@](C)(C(=O)O)CC[C@]5(C)CC[C@@]4(C)[C@]3(C)CC[C@@H]12` were, in that order, 49.1% and -3.64%.
The corresponding values for `CN1CCN(C(c2ccccc2)c2ccc(Cl)cc2)CC1` (stereo not given) are 96.8% and 2.14%.
`CCC(=O)N[C@H]1CC[C@@H](C(=O)N(C)c2ccc(-c3nc4ccccc4o3)cc2)C1` showed a mCherry in experiment [1] of 47.4%. Also, the percent effect in experiment [2] was -9.78%.
Molecule `NC(=O)N=Nc1ccc2ccccc2c1O` [naftazone] showed a mCherry in experiment [1] of 57.4%. Further, the percent effect in experiment [2] came to 0.0624%.
`Nc1ncnc2c1ncn2[C@@H]1O[C@H](CO)[C@@H](O)[C@@H]1O` [vidarabine]: the mCherry in experiment [1] was 92.8% and 82.8%. The percent effect in experiment [2] was -2.03% and 1.13%.
The molecule `CO[C@H]1C[C@H](O[C@H]2[C@H](C)[C@@H](O[C@@H]3O[C@H](C)C[C@H](N(C)C)[C@H]3O)[C@@H](C)C[C@@]3(CO3)C(=O)[C@H](C)[C@@H](O)[C@@H](C)[C@@H](C)OC(=O)[C@@H]2C)O[C@@H](C)[C@@H]1O` [oleandomycin] showed a mCherry in experiment [1] of 110%. For the same molecule, the percent effect in experiment [2] was -5.57%.
The corresponding values for `c1ccc2c(c1)cc1n2CCCNC1` [azepindole] are 96.5% and -1.15%.
For `Cc1ccnc2c1NC(=O)c1cccnc1N2C1CC1` [nevirapine], in experiment [1], the mCherry is 106%. The percent effect in experiment [2] is -3.01%.
The corresponding values for `COc1ccc(C2CNC(=O)NC2)cc1O[C@H]1C[C@@H]2CC[C@H]1C2` [atizoram] are 110% and -4.27%.
In the case of `OCCOCCN1CCN(C2=Nc3ccccc3Sc3ccccc32)CC1` [quetiapine], the mCherry in experiment [1] was 97.4% and 87.7%. For the same molecule, the percent effect in experiment [2] is -2.72% and -0.147%.
Consider `CC(=O)Nc1c(I)c(C(=O)N[C@H]2C(O)O[C@H](CO)[C@@H](O)[C@@H]2O)c(I)c(N(C)C(C)=O)c1I` (stereo not given in full) [Amipaque], for which, in experiment [1], the mCherry is 108% and 109%. Also, in experiment [2], the percent effect is -5.5% and -3.19%.
For `O=NN(CCCl)C(=O)NC1CCCCC1` [lomustine], the mCherry in experiment [1] is 82.2% and 75%. Also, the percent effect in experiment [2] is -0.926% and -7.35%.
`NCCC[C@H](N)CC(=O)N[C@H]1CNC(=O)[C@H]([C@H]2C[C@H](O)NC(N)=N2)NC(=O)/C(=C/NC(N)=O)NC(=O)[C@H](CO)NC(=O)[C@H](CO)NC1=O`: the mCherry in experiment [1] was 103%. The percent effect in experiment [2] is -0.0675%.
The corresponding values for `CO/N=C(\C(=O)N[C@@H]1C(=O)N2C(C(=O)O)=C(/C=C\c3scnc3C)CS[C@H]12)c1csc(N)n1` [Cefditoren] are 94.3% and -1.41%.
The corresponding values for `CC[C@H]1OC(=O)C[C@@H](O)[C@H](C)[C@@H](O[C@@H]2O[C@H](C)C[C@H](N(C)C)[C@H]2O)[C@@H](CC=O)C[C@@H](C)C(=O)/C=C/[C@]2(C)O[C@H]2[C@@H]1C` [rosaramicin] are 64.8% and -4.58%.
Molecule `CN(C(=O)C(Cl)Cl)c1ccc(O)cc1` [diloxanide] returned a mCherry in experiment [1] of 102%. For the same molecule, in experiment [2], the percent effect was -4.61%.
The corresponding values for `CN(CCOc1ccc(CC2SC(=O)NC2=O)cc1)c1ccccn1` (stereo not given) [rosiglitazone] are 99.7% and -3.54%.
`C[C@]12CC[C@@H]3c4ccc(OS(=O)(=O)O)cc4CC[C@H]3[C@@H]1CCC2=O` came in with a mCherry in experiment [1] of 108%. In addition, the percent effect in experiment [2] is -0.197%.
The corresponding values for `NS(=O)(=O)c1cc2c(cc1Cl)N=CNS2(=O)=O` are 78.1% and -1.04%.
The molecule `NCCc1cc[nH]n1` displayed a mCherry in experiment [1] of 112%. The percent effect in experiment [2] was -2.2%.
The like results for `O=C(O)CN1CCN(CC(=O)O)CCN(CC(=O)O)CCN(CC(=O)O)CC1` [tetraxetan] were, in that order, 85.5% and -2.36%.
In turn, `CO[C@H]1/C=C/O[C@@]2(C)Oc3c(C)c(O)c4c(O)c(c(/C=N/N5CCN(C)CC5)c(O)c4c3C2=O)NC(=O)/C(C)=C\C=C\[C@H](C)[C@H](O)[C@@H](C)[C@@H](O)[C@@H](C)[C@H](OC(C)=O)[C@@H]1C` [Rifampicin] gave a mCherry in experiment [1] of 71.8%. Also, the percent effect in experiment [2] was -2.54%.
On to `C/N=C(/NC)NCc1ccc(OC)cc1` [meobentine], for which, in experiment [1], the mCherry is 101%. Further, the percent effect in experiment [2] was -3.47%.
In experiment [1], `CC1(C)S[C@@H]2[C@H](NC(=O)[C@H](NC(=O)N3CCNC3=O)c3ccccc3)C(=O)N2[C@H]1C(=O)O` displayed a mCherry of 85.7%. The percent effect in experiment [2] is -0.723%.
The corresponding values for `CC(=O)OC/C=C(C)/C=C/C=C(C)/C=C/C1=C(C)CCCC1(C)C` [Vitamin A acetate] are 83.1% and -1.21%.
As to `CC(C)C[C@H](N)C(=O)O` [leucine], the mCherry in experiment [1] was 127%. For the same molecule, in experiment [2], the percent effect was -4.1%.
The corresponding values for `O=C(Nc1cccc(C2=NCCN2)c1)Nc1cccc(C2=NCCN2)c1` [imidocarb] are 94.8% and -3.01%.
For the molecule `COc1ccc(C(=O)NCc2cccnc2)cc1C(=O)NCc1cccnc1` [Picotamide], in experiment [1], the mCherry stood at 82.2%. In experiment [2], the percent effect is -4.35%.
